Reference: PubChem BioAssay AID1508597 (Cure First, 2020)

Aim: 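Genes whose silencing sensitises or protects ovarian cancer cells against rucaparib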 (primary screen)
Cells: human ovarian carcinoma lines grown from tumours: OCI-P5x (papillary serous) and OCI-C5x (clear cell)
Reagents: siRNA pool against human genes, 1.25 pmol siRNA per well
Time to read-out: 72 h or 96 h, depending on the cell culture
Treatment: rucaparib 20 µM (about IC30) or vehicle, present until read-out
Rucaparib or vehicle: Rucaparib
Cell line: OCI-P5x (serous)
Detection: 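ATP luminescence measured at 72 or 96 h according to the culture, then normalised and expressed as percent viability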
Direction: viability, normalised: higher = more viable cells remaining
Rule for the call: 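Active when normalised viability falls below 80 percent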
Calls: active = viability under 80%; inactive = viability 80% or more
This is an unselected part of the about 2,100 reagents, in one setting of the screen. 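Calls flag viability under 80% in either arm, not effects specific to rucaparib; the reference for percent is not stated.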 Not stated in the record: the 100% reference.

| gene | technical replicate | viability, normalised (%) | call |
| --- | --- | --- | --- |
| SS18L1 | 1 | 45.5 | active |
| SS18L1 | 2 | 45.6 | active |
| SS18L1 | 3 | 37.8 | active |
| CDKL5 | 1 | 88.4 | inactive |
| CDKL5 | 2 | 94.7 | inactive |
| CDKL5 | 3 | 86.4 | inactive |
| TF | 1 | 162 | inactive |
| TF | 2 | 168 | inactive |
| TF | 3 | 137 | inactive |
| HDGF | 1 | 97.1 | inactive |
| HDGF | 2 | 87.4 | inactive |
| HDGF | 3 | 77.9 | active |
| POLE2 | 1 | 58.1 | active |
| POLE2 | 2 | 62.3 | active |
| POLE2 | 3 | 47 | active |
| IPO8 | 1 | 94.1 | inactive |
| IPO8 | 2 | 73.8 | active |
| IPO8 | 3 | 59.3 | active |
| JMJD6 | 1 | 45.1 | active |
| JMJD6 | 2 | 47.4 | active |
| JMJD6 | 3 | 55.7 | active |
| RAB38 | 1 | 78.3 | active |
| RAB38 | 2 | 93.6 | inactive |
| RAB38 | 3 | 79.7 | active |

No new results follow: an excerpt of the list.
| gene | technical replicate | viability, normalised (%) | call |
| --- | --- | --- | --- |
| POLE2 | 1 | 58.1 | active |
| POLE2 | 2 | 62.3 | active |
| POLE2 | 3 | 47 | active |
